Laboratory results from PMC8649871.
Where a chain is given by its changes, count along the chain named. These are yes or no findings as the source states them, for the method shown. Binding seen in cells or lysates may run through a third protein. Some binding calls cover weakened binding; strength is not graded here. Sequences can lack the tags named with a protein.

Key:
Experiment in all cases: co-IP; HEK293 cells 36 h after transfection of the indicated plasmids, NP-40 lysis buffer; FLAG-M2 magnetic beads overnight at 4°C, washed four to five times with lysis buffer; western blotting
[1] = target: T1, FLAG-tagged MOS Cys320Ter variant (human) (UniProt P00540)
T1 sequence: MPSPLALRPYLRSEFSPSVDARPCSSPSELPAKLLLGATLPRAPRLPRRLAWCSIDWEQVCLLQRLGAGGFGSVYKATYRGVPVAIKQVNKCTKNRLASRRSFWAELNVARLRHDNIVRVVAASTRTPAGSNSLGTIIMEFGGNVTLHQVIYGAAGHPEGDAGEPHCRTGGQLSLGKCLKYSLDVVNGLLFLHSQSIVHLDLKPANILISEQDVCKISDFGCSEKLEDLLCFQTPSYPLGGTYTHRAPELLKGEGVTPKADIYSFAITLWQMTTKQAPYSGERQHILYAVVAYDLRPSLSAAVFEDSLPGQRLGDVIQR

[2] = target: T2, FLAG-tagged MOS Arg246His variant (human) (UniProt P00540)
T2 sequence: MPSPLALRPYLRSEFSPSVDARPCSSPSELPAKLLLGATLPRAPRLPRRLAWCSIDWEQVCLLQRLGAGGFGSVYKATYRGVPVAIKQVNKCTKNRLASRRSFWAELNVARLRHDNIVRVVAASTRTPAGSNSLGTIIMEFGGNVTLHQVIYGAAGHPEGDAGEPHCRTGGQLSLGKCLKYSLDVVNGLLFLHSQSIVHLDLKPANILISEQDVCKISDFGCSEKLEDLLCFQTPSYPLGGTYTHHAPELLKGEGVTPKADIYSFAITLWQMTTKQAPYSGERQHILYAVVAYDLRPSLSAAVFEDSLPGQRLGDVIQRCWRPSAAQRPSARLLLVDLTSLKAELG

[3] = target: T3, FLAG-tagged MOS Asn95Lys variant (human) (UniProt P00540)
T3 sequence: T2 sequence with N95K, H246R

[4] = target: T4, FLAG-tagged wild-type MOS (Moloney sarcoma oncogene, serine/threonine kinase) (human) (UniProt P00540)
T4 sequence: T2 sequence with H246R

## MEK1 (from UniProt Q02750 1-393) (enzyme)
[1]
  binding: binds weakly
[2]
  binding: binds
[3]
  binding: binds
[4]
  binding: binds
